A short description of the experiment: qHTS Assay for Lipid Storage Modulators in Drosophila S3 Cells.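 As to cell number change: cells counted by Cell Tracker Red CMTPX staining in the red channel.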 To be noted: BODIPY lipid droplet fluorescence, 18-24 h; for cell number change: measured here: cell count max response, cells fed with added oleic acid. Put shortly: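 Laser-scanning cytometry quantifies lipid droplet accumulation (500–530 nm total intensity; droplet/cell object ratio) in oleic acid-fed (400 uM added) Drosophila S3 cells treated with a concentration series. 20 uM Triacsin C defined 100% inhibition.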

Where [1] appears, read: measured here: lipid fluorescence (Fed channel) AC50, cells fed with added oleic acid.
Setting [2] is: measured here: cell number channel AC50, cells fed with added oleic acid.

Where “and” joins values, the source holds several entries; their conditions need not be identical. Identical values can stand only once. The list shows a part of the results. These are further read-outs of the screen, such as a control signal, another cell line or another target. No call is given for them. Most of these compounds were active or inconclusive in the main read-out, so they are no random draw. The note in brackets gives the kind of curve behind each potency; many fits are weak.

The AC50 is the midpoint of the concentration-response curve, whichever way the signal moves. A lower AC50 goes with activity at low concentration.

As to `COc1cc(/C=C/c2nc3ccccc3c(=O)n2-c2ccc(O)cc2)ccc1O`, the cell number change was -24.9%. For the same compound, under setting [1], the AC50 is 23.1 µM [falling, partial curve].
As for `CC(=O)N(C1=NCCCS1)c1ccc(F)cc1`, the AC50 under setting [1] was 29.1 µM [falling, single point].
Turning to `Cc1cc(C)cc(N2C(=O)NC(=O)/C(=C/c3cccn3-c3ccc(Cl)cc3)C2=O)c1`, the cell number change was -44.1%. For the same compound, under setting [2], the AC50 is 10.3 µM [falling, partial curve]. Also, under setting [1], the AC50 was 5.8 µM [falling, full curve].
Regarding `Cc1cc(S(=O)(=O)NCc2ccccc2)ccc1OCC(=O)N1CCN(C)CC1`, under setting [1], the AC50 was 0.116 µM [falling, full curve, poor fit].
In the case of `Cc1ccsc1-c1nc(CSCC(=O)N2CCC3(CC2)OCCO3)c(C)o1`, the cell number change is -13.8%. The AC50 under setting [1] was 29.1 µM [falling, single point].
Consider `COc1ccc(C2SCC(=O)Nc3c2c(=O)[nH]n3C2CCCCCC2)cc1OC` (configuration not stated), for which the cell number change was -10.3%.
In the case of `COc1ccc(CN2CCN(C(=O)COc3ccc4ccccc4c3)CC2)c(OC)c1`, the cell number change stood at 0.917%. Further, the AC50 under setting [1] was 14.6 µM [rising, partial curve, poor fit].
Regarding `O=c1[nH]c(=S)n(-c2ccccc2F)c(O)c1C=NCc1ccco1`, the cell number change is -24.9%.
In the case of `O=[N+]([O-])c1cccc2c([N+](=O)[O-])cccc12`, the cell number change worked out at 16.9%.
Take `COC(=O)C1=C(c2cccc(C#N)c2)C[C@@H]2CC[C@H]1N2C(=O)NCc1ccc(F)cc1`: the cell number change is 2.76%.
In the case of `O=C(C1CCCO1)N1CCC2(CC1)OCCO2` (configuration not stated), the cell number change is 7.82%. Further, the AC50 under setting [1] was 3.26 µM [falling, full curve, poor fit].
As for `CCN1CCN(Cc2cc(OC)c(OC)cc2[N+](=O)[O-])CC1`, the cell number change was determined as 3.29%. Moreover, under setting [2], the AC50 is 6.51 µM [rising, single point].
Regarding `CCCCn1c(O)c(C(C)=NCC2CCCO2)c(=O)[nH]c1=O` (configuration not stated), the cell number change was -8.49%.
For the compound `CNc1ccc2nc3ccccc3[n+](C)c2c1`, the cell number change was -89.6%. Also, the AC50 under setting [2] is 29.1 µM [falling, single point]. Under setting [1], the AC50 was 29.1 µM [falling, single point].
As to `c1ccc(CNC2=NCCS2)cc1`, the cell number change was found to be 6.47%.
Same read-out and setting: with `O=C1NC(=O)C(=CN2CCc3ccccc32)C(=O)N1` the figure was 0.148%.
Consider `CCc1ccc(OCC(=O)N2CCN(CC(=O)Nc3ccccc3Cl)CC2)cc1`, for which the cell number change was found to be 20.5%. Also, the AC50 under setting [1] is 25.9 µM [rising, single point].
With `C[C@H]1[C@@H](c2ccccc2)O[C@@H](c2ccccc2Br)N1C`, the cell number change is -16.5%. Besides, the AC50 under setting [1] was 6.51 µM [falling, single point].
Consider `CCN(CC)C(=O)Oc1ccc(OC(=O)N(CC)CC)cc1`, for which the AC50 under setting [2] is 0.58 µM [falling, partial curve, poor fit].
On to `Cc1oc(-c2ccccc2)nc1CN1C(=O)C(C)N=C(c2ccccc2F)c2cc(Cl)ccc21` (configuration not stated), for which the cell number change was 23.8%. For the same compound, the AC50 under setting [1] is 1.84 µM [rising, partial curve].
Regarding `O=C1NC(=O)N(Cc2ccccc2)C(=O)/C1=C/c1cnc(-c2ccccc2)nc1`, the cell number change worked out at 14.8%. Further, the AC50 under setting [1] is 0.731 µM [rising, full curve, poor fit].
On to `COC(=O)C1=C(c2cccc(C#N)c2)C[C@@H]2CC[C@H]1N2C(=O)N1CCOCC1`, for which the cell number change was -44.3%. Also, under setting [2], the AC50 was 29.1 µM [falling, single point].
In the case of `COC(=O)C1=C(c2ccc(OC(F)(F)F)cc2)C[C@@H]2CC[C@H]1N2C(=O)N1CCOCC1`, the cell number change is -5.42%. Besides, the AC50 under setting [1] is 29.1 µM [falling, single point].
Consider `CCN1CCN(c2ccc([N+](=O)[O-])cc2C#N)CC1`, for which the cell number change is 40.7%. Also, the AC50 under setting [2] was 14.6 µM [rising, single point].
`CSc1ncc(/C=C2/C(=O)NC(=O)N(c3ccc(Cl)cc3)C2=O)cn1`: the cell number change was 36%. Under setting [2], the AC50 is 0.58 µM [rising, full curve, poor fit]. The AC50 under setting [1] is 3.66 µM [rising, partial curve, poor fit].
Consider `O=S(=O)(c1ccc(Cl)cc1)N1CC1c1ccccc1` (configuration not stated), for which the cell number change is -68.8%. Also, under setting [2], the AC50 is 1.03 µM [falling, full curve]. In addition, the AC50 under setting [1] was 1.03 µM [falling, full curve].
On to `C[C@]12CCC3[C@@H](CCC4=CC(=O)CC[C@@]43CO)C1CCC2=O` (some centres not stated), for which the cell number change was 45.8%. Also, the AC50 under setting [2] is 0.291 µM [rising, full curve, poor fit].
In the case of `O=C1CCN(C(=O)Cc2ccccc2[N+](=O)[O-])CC1`, the cell number change is -6.95%. Also, under setting [1], the AC50 is 6.51 µM [rising, single point].
In the case of `CCn1c(O)c(/C(C)=N/N2CCCCC2c2cccnc2)c(=O)[nH]c1=S` (configuration not stated), the cell number change came out at 41.2%. Besides, under setting [2], the AC50 was 29.1 µM [rising, single point]. The AC50 under setting [1] is 5.17 µM [rising, full curve, poor fit].
As to `CN1CCN(c2ccc(F)cc2N)CC1`, the cell number change was -14.5%. For the same compound, the AC50 under setting [1] was 4.11 µM [falling, single point].
In the case of `CCNC(=O)NC(=O)C(C)OC(=O)c1c(C)nn(Cc2ccccc2Cl)c1Cl` (configuration not stated), the cell number change came out at 4.7%. In addition, the AC50 under setting [1] is 10.3 µM [falling, partial curve].
Regarding `CC12CN3CCN(C1)CC(C)(C3)C2=NO`, the cell number change is -26.2%. For the same compound, the half-maximal activity concentration (AC50) under setting [1] was 4.61 µM [falling, full curve, poor fit].
With `COc1ccc(N=Cc2c(O)n(C)c(=O)[nH]c2=O)cc1`, the cell number change is 3.86%. Also, the AC50 under setting [1] was 16.4 µM [falling, single point].
As for `S=c1[nH]c2ccccc2[nH]1`, the cell number change was 24.8%.
In the case of `CCN(CC)CCNCc1nc2ccccc2c(=O)n1-c1ccc(F)cc1`, the cell number change was 5.71%. Moreover, the AC50 under setting [1] was 0.013 µM [falling, full curve, poor fit].
For the compound `C[N+]1(C)C2CCC1CC(OC(=O)C(CO)c1ccccc1)C2` (configuration not stated), the cell number change was 16.6%. The AC50 under setting [2] is 2.59 µM [rising, partial curve].
Turning to `O=C(CNC1CCCCC1)N1CCC2(CC1)OCCO2`, the cell number change was 9.64%. For the same compound, the AC50 under setting [1] is 1.84 µM [falling, partial curve].
On to `Cc1ccccc1-n1c(O)c(C=Nc2ccc3c(c2)OCO3)c(=O)[nH]c1=O`, for which the cell number change was determined as 4.35%. The AC50 under setting [1] is 0.103 µM [rising, full curve, poor fit].
Regarding `CCOP(=O)(OCC)c1cccc(P(=O)(c2ccccc2)c2ccccc2)c1O`, under setting [2], the AC50 was 3.26 µM [falling, partial curve].
`Cc1ccc2c(c1)CC1(CN2C)C(=O)NC(=O)N(CCc2ccccc2)C1=O` (configuration not stated): the cell number change came out at 52.2%. The AC50 under setting [2] is 1.3 µM [rising, partial curve]. Besides, the AC50 under setting [1] was 3.26 µM [rising, partial curve].
Regarding `COC(=O)C1=C(c2ccc(OCc3ccccc3)cc2)C[C@@H]2CC[C@H]1N2C(=O)NCc1ccc(N(C)C)cc1`, the cell number change was -38.7%. The AC50 under setting [2] is 20.6 µM [falling, partial curve, poor fit].
Consider `CC(Cc1ccccc1)NC(=O)C(c1ccc(N)cc1)c1ccc(N)cc1` (configuration not stated), for which the cell number change turned out to be 8.07%.
Consider `O=c1[nH]c(=O)n(C2CCCCCC2)c(O)c1C=NC1CCN(Cc2ccccc2)CC1`, for which the cell number change is -0.526%. In addition, the AC50 under setting [1] is 6.51 µM [rising, single point].
`CCN1CCN(C(=O)COc2ccc(S(=O)(=O)N3CCOCC3)cc2Cl)CC1`: the cell number change was 7.69%.
On to `CCN(CC)CCN=Cc1c(O)n(Cc2ccccc2)c(=O)[nH]c1=O`, for which the cell number change is -51.5% and -47.2%. Also, under setting [2], the AC50 was 14.6 µM [falling, partial curve] and 25.9 µM [falling, single point]. Besides, under setting [1], the AC50 was 13 µM [falling, partial curve, poor fit].
Turning to `O=C(c1cc(-c2ccccc2)on1)N1CCC2(CC1)OCCO2`, the cell number change stood at 4.07%.
Consider `Cc1ccc(N2C(=O)NC(=O)/C(=C\c3ccc([N+](=O)[O-])o3)C2=O)cc1`, for which the cell number change is -43.9%. Also, under setting [2], the AC50 was 0.164 µM [falling, full curve]. The AC50 under setting [1] is 14.6 µM [falling, partial curve].
In the case of `Fc1ccc(Cn2nnnc2C(c2ccc(Cl)cc2)N2CC=C(c3ccc(F)cc3)CC2)cc1` (configuration not stated), the cell number change came to 121%. In addition, under setting [2], the AC50 was 29.1 µM [rising, single point]. Besides, the AC50 under setting [1] was 20.6 µM [rising, single point].
Take `CC(C)(C)C(O)C(Oc1ccc(Cl)cc1)n1cncn1` (configuration not stated): the cell number change turned out to be 55.9%. Moreover, under setting [2], the half-maximal activity concentration (AC50) was 2.06 µM [rising, full curve]. For the same compound, the AC50 under setting [1] was 2.31 µM [rising, full curve].
`CC1(c2ccccc2)NCCN2C(=O)CSC21` (configuration not stated): the cell number change was determined as 34.3%. The AC50 under setting [2] was 29.1 µM [rising, single point].
Regarding `COC(=O)C1=C(c2ccc(-c3ccccc3)c(F)c2)C[C@@H]2CC[C@H]1N2C(=O)NC1CCCCC1`, the cell number change is -5.17%. For the same compound, the AC50 under setting [1] was 1.16 µM [falling, partial curve].
`O=C1Nc2ccccc2/C1=C/c1nc2ccccc2c(=O)n1-c1ccc(O)cc1`: the cell number change was -37.6%. For the same compound, the AC50 under setting [2] is 29.1 µM [falling, single point]. Under setting [1], the AC50 is 29.1 µM [falling, single point].
Turning to `c1cncc(C2CC(c3cccs3)n3ncnc3N2)c1` (configuration not stated), the AC50 by setting is: under setting [2], 0.731 µM [rising, partial curve]; under setting [1], 0.259 µM [rising, full curve].
`Cc1ccccc1-n1c(C)nc2sccc2c1=O`: the cell number change was -6.98%.
Regarding `CCc1nnc(NS(=O)(=O)c2ccc(N=Cc3c(O)n(-c4ccc(Cl)cc4)c(=O)[nH]c3=O)cc2)s1`, the cell number change is -20.1%. Further, the AC50 under setting [1] is 16.4 µM [falling, single point].
On to `CC(C)n1c(=O)c(C=Nc2ccc(Br)cc2)c(O)n(Cc2ccco2)c1=O`, for which, under setting [1], the AC50 is 5.8 µM [rising, full curve, poor fit].
On to `Cc1cccc([N+](=O)[O-])c1`, for which the cell number change was determined as 17.6%. For the same compound, the AC50 under setting [2] was 0.164 µM [falling, full curve]. Also, under setting [1], the AC50 is 0.103 µM [rising, single point].
On to `COc1ccccc1CCNC1CCCC(C)C1` (configuration not stated), for which the cell number change was -4.61%. The AC50 under setting [1] was 0.0651 µM [falling, full curve, poor fit].
On to `O=c1c2ccccc2[se]n1-c1ccccc1`, for which the cell number change is -84.9%. Also, the AC50 under setting [2] is 20.6 µM [falling, partial curve]. Also, the AC50 under setting [1] is 16.4 µM [falling, partial curve].
For `CN1CCN(c2ccccc2N)CC1`, the cell number change stood at 61.6%. The AC50 under setting [2] is 16.4 µM [rising, single point]. Moreover, the AC50 under setting [1] was 6.51 µM [falling, single point].
